# Results reported in the supplement of paper PMC4604168 (melanoma cell lines).
# The list shows a part of the results. Many values rest on one well or one pass, so single values are uncertain.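 Cells were imaged in 1,536-well plates, and nuclei stained with an antibody against cleaved PARP were counted against all DNA-stained nuclei to give the apoptosis fraction. Screening doses were chosen to leave most cells alive, and resting and induced cleaved-PARP levels differ strongly between cell lines.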
# Tests used:
# Test in all cases: cleaved PARP positive nuclei fraction relative to DMSO control; melanoma cells; higher = more apoptosis
# Details in all cases: library dose: low library concentration; 72 h
# 501Mel = tested on: 501Mel
# A101D = tested on: A101D
# A2058 = tested on: A2058
# A375 = tested on: A375
# C32 = tested on: C32
# CBRC008 = tested on: CBRC008 (line from a melanoma biopsy)
# CBRC014 = tested on: CBRC014 (line from a melanoma biopsy)
# CBRC016 = tested on: CBRC016 (line from a melanoma biopsy)
# CBRC017 = tested on: CBRC017 (line from a melanoma biopsy)
# CBRC034 = tested on: CBRC034 (line from a melanoma biopsy)
# COLO792 = tested on: COLO792
# COLO800 = tested on: COLO800
# COLO829 = tested on: COLO829
# G361 = tested on: G361
# IPC-298 = tested on: IPC-298
# IST-MEL1 = tested on: IST-MEL1
# LB2518-MEL = tested on: LB2518-MEL
# LOXIMVI = tested on: LOXIMVI
# MEL-HO = tested on: MEL-HO
SMILES,cleaved PARP positive nuclei fraction (501Mel) [%],cleaved PARP positive nuclei fraction (A101D) [%],cleaved PARP positive nuclei fraction (A2058) [%],cleaved PARP positive nuclei fraction (A375) [%],cleaved PARP positive nuclei fraction (C32) [%],cleaved PARP positive nuclei fraction (CBRC008) [%],cleaved PARP positive nuclei fraction (CBRC014) [%],cleaved PARP positive nuclei fraction (CBRC016) [%],cleaved PARP positive nuclei fraction (CBRC017) [%],cleaved PARP positive nuclei fraction (CBRC034) [%],cleaved PARP positive nuclei fraction (COLO792) [%],cleaved PARP positive nuclei fraction (COLO800) [%],cleaved PARP positive nuclei fraction (COLO829) [%],cleaved PARP positive nuclei fraction (G361) [%],cleaved PARP positive nuclei fraction (IPC-298) [%],cleaved PARP positive nuclei fraction (IST-MEL1) [%],cleaved PARP positive nuclei fraction (LB2518-MEL) [%],cleaved PARP positive nuclei fraction (LOXIMVI) [%],cleaved PARP positive nuclei fraction (MEL-HO) [%]
"CN1CCN(c2ccc3nc(-c4c(N)c5c(F)cccc5[nH]c4=O)[nH]c3c2)CC1 [Dovitinib] + Clc1ccc(Nc2nnc(Cc3ccncc3)c3ccccc23)cc1 [vatalanib] (first compound 0.1 µM, partner dose 2 µM)",106,208,110,173,251,156,109,98.7,115,37.5,109,125,107,221,246,218,113,65.7,101
"CS(=O)(=O)CCNCc1ccc(-c2ccc3ncnc(Nc4ccc(OCc5cccc(F)c5)c(Cl)c4)c3c2)o1 [lapatinib] + COCC[n+]1c2c(n(Cc3cnccn3)c1C)C(=O)c1ccccc1C2=O [YM155] (first compound 0.8 µM, partner dose 0.0004 µM)",57.9,109,177,429,131,516,98.1,263,97.2,102,146,183,155,150,69,76.9,87,123,80.7
"Nc1ncn([C@H]2C[C@H](O)[C@@H](CO)O2)c(=O)n1 [decitabine] + Cn1nnc2c(C(N)=O)ncn2c1=O [temozolomide] (first compound 0.1 µM, partner dose 2 µM)",73.2,100,238,48.1,57.9,248,124,232,100,45,106,108,217,135,249,37.4,239,133,158
"Cc1cc(Nc2cc(N3CCN(C)CC3)nc(/C=C/c3ccccc3)n2)n[nH]1 + C[C@]1(c2nc3c(C(N)=O)cccc3[nH]2)CCCN1 [Veliparib] (first compound 0.04 µM, partner dose 1.4 µM)",74.2,303,108,136,77.1,47.9,86.4,97.8,101,356,58.3,50.9,125,59.6,40.6,132,216,98.5,48.5
"C=C(c1ccc(C(=O)O)cc1)c1cc2c(cc1C)C(C)(C)CCC2(C)C [Bexarotene] + Nc1ccn([C@@H]2O[C@H](CO)[C@@H](O)C2(F)F)c(=O)n1 [gemcitabine] (first compound 2 µM, partner dose 0.0004 µM)",84.1,81.8,80.6,155,119,280,109,230,141,39.9,95.8,61.1,102,163,62.4,166,227,82.6,161
"C[C@@H](Oc1cc(-c2cnn(C3CCNCC3)c2)cnc1N)c1c(Cl)ccc(F)c1Cl [Crizotinib] + Nc1cccc2c1CN(C1CCC(=O)NC1=O)C2=O [lenalidomide] (first compound 0.2 µM, partner dose 1 µM)",217,98,137,77.9,83.2,28.1,88.7,86.8,77.4,90.3,162,111,107,88.6,83.4,129,50.5,245,193
"C=C(c1ccc(C(=O)O)cc1)c1cc2c(cc1C)C(C)(C)CCC2(C)C [Bexarotene] + Cc1nc(Nc2ncc(C(=O)Nc3c(C)cccc3Cl)s2)cc(N2CCN(CCO)CC2)n1 [dasatanib] (first compound 2 µM, partner dose 0.004 µM)",71.6,87.6,42.7,128,80.3,96.4,112,189,146,696,101,59,131,115,82.6,67.5,90.3,158,199
"O=C(O)[C@@H]1[O][Sb](=[O])([O][Sb]2(=[O])[O][C@H]([C@H](O)CO)[C@H](O)[C@H](C(=O)O)[O]2)[O][C@H]([C@H](O)CO)[C@@H]1O (some centres not stated) [stibogluconate] + Nc1cccc2c1CN(C1CCC(=O)NC1=O)C2=O [lenalidomide] (first compound 2 µM, partner dose 1 µM)",68.2,142,101,238,88.2,178,92.4,115,85.1,247,155,56.6,158,120,89,56.1,71,76.6,72.6
